PubChem BioAssay AID1508597 | Cure First – 2020
This is an unselected part of the about 2,100 reagents, in one setting of the screen. 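Calls flag viability under 80% in either arm, not effects specific to rucaparib; the reference for percent is not stated.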 A reagent listed more than once was tested more than once; the source does not tell the runs apart. Reagent sequences are not shown. The record does not give: the 100% reference.

- Purpose: 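Survival screen with siRNA in ovarian cancer cells derived from patients, with or without rucaparib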 (primary screen)
- Cells: human ovarian carcinoma lines grown from tumours: OCI-P5x (papillary serous) and OCI-C5x (clear cell)
- Knock-down reagent: siRNA pool against human genes, 1.25 pmol siRNA per well
- Time to read-out: 72 h or 96 h, depending on the cell culture
- Conditions: rucaparib 20 µM (about IC30) or vehicle, present until read-out
- Rucaparib or vehicle: Vehicle
- Cell line: OCI-P5x (serous)
- Measurement: 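Luminescent ATP-based viability assay read 72 or 96 h after transfection, depending on culture, given as normalised percent viability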
- Reading the numbers: viability, normalised: higher = more viable cells remaining
- Active means: 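a well counts as a hit if its normalised viability is under 80 percent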
- Calls: active = viability under 80%; inactive = viability 80% or more

no.	target	technical replicate	viability, normalised (%)	Outcome
1	RPA3 (replication protein A3)	1	70.1	active
2	RPA3 (replication protein A3)	2	60.5	active
3	RPA3 (replication protein A3)	3	51.4	active
4	TTF2 (transcription termination factor 2)	1	71.9	active
5	TTF2 (transcription termination factor 2)	2	79.6	active
6	TTF2 (transcription termination factor 2)	3	84.3	inactive
7	CLDN4 (claudin 4)	1	74.5	active
8	CLDN4 (claudin 4)	2	91.4	inactive
9	CLDN4 (claudin 4)	3	138	inactive
10	MAP3K2 (mitogen-activated protein kinase kinase kinase 2)	1	79.6	active
11	MAP3K2 (mitogen-activated protein kinase kinase kinase 2)	2	69.4	active
12	MAP3K2 (mitogen-activated protein kinase kinase kinase 2)	3	86.3	inactive
13	PIK3CG	1	98.6	inactive
14	PIK3CG	2	84.9	inactive
15	PIK3CG	3	80.9	inactive

Quoted from the entries so far for reference:
no.	target	technical replicate	viability, normalised (%)	Outcome
2	RPA3 (replication protein A3)	2	60.5	active
3	RPA3 (replication protein A3)	3	51.4	active
4	TTF2 (transcription termination factor 2)	1	71.9	active
5	TTF2 (transcription termination factor 2)	2	79.6	active

Next reagents follow.
no.	target	technical replicate	viability, normalised (%)	Outcome
16	PIKFYVE (phosphoinositide kinase, FYVE-type zinc finger containing)	1	89.4	inactive
17	PIKFYVE (phosphoinositide kinase, FYVE-type zinc finger containing)	2	79.7	active
18	PIKFYVE (phosphoinositide kinase, FYVE-type zinc finger containing)	3	77.5	active
19	CKB (creatine kinase B)	1	114	inactive
20	CKB (creatine kinase B)	2	108	inactive
21	CKB (creatine kinase B)	3	104	inactive
22	HMGB2 (high mobility group box 2)	1	95.5	inactive
23	HMGB2 (high mobility group box 2)	1	54.6	active
24	HMGB2 (high mobility group box 2)	2	83.5	inactive
25	HMGB2 (high mobility group box 2)	2	98	inactive
26	HMGB2 (high mobility group box 2)	3	77	active
27	HMGB2 (high mobility group box 2)	3	92.4	inactive
28	SMC4 (structural maintenance of chromosomes 4)	1	61.8	active
29	SMC4 (structural maintenance of chromosomes 4)	2	58.4	active
30	SMC4 (structural maintenance of chromosomes 4)	3	69.5	active
31	RAD23A (RAD23 nucleotide excision repair protein A)	1	61.5	active
32	RAD23A (RAD23 nucleotide excision repair protein A)	2	67.1	active
33	RAD23A (RAD23 nucleotide excision repair protein A)	3	65	active
34	TLK2 (tousled like kinase 2)	1	47.9	active
35	TLK2 (tousled like kinase 2)	1	62.7	active
36	TLK2 (tousled like kinase 2)	2	69.9	active
37	TLK2 (tousled like kinase 2)	2	58.7	active
38	TLK2 (tousled like kinase 2)	3	78.2	active
39	TLK2 (tousled like kinase 2)	3	62.3	active
